US20110300157A1 (DYAX, published 2011)
These are yes or no findings as the source states them, for the method shown. Some results given as binding are weak or reduced against the parent protein; the word gives no strength.

Sequences of proteins named here, by UniProt entry; tags and fusion partners are left off. Residues count along the entry.
UniProt P08253, residues 110-660: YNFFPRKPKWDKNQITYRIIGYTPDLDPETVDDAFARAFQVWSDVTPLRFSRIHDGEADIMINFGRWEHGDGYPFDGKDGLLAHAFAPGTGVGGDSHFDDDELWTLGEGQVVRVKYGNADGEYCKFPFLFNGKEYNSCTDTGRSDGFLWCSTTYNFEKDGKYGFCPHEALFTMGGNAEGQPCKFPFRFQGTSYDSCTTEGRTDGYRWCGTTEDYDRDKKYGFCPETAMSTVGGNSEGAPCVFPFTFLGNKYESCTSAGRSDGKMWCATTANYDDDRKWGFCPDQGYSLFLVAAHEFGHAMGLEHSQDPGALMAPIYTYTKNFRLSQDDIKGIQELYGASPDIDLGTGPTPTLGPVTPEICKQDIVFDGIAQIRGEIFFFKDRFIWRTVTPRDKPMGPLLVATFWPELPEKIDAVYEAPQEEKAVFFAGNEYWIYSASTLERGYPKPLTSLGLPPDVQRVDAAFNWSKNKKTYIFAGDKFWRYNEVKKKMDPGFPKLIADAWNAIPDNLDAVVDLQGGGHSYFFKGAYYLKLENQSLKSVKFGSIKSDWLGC
UniProt P14780, residues 107-444: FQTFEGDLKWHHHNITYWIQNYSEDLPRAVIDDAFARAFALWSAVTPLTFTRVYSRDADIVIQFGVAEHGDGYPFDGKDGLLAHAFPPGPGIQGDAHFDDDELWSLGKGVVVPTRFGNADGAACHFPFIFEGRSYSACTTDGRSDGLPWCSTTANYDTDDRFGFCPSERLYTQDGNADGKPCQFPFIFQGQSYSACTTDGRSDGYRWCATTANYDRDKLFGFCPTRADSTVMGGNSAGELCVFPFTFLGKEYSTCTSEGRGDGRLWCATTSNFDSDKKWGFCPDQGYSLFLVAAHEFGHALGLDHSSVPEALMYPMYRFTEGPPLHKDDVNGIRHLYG
UniProt P33434, residues 110-662: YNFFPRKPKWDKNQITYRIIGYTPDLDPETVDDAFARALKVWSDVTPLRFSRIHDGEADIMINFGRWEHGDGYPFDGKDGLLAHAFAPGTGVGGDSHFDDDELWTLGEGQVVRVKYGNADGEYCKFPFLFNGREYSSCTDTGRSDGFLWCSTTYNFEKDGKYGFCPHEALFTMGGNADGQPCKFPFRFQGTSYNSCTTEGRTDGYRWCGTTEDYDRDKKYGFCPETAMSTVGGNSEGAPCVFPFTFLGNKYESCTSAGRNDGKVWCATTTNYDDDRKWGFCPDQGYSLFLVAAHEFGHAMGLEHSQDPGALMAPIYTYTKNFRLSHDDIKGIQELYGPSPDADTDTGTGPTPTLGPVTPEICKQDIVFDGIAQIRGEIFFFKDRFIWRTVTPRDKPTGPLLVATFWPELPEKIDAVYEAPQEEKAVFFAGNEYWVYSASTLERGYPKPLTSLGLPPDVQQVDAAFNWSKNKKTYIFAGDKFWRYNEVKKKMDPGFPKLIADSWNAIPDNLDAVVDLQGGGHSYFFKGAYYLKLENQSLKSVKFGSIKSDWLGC
UniProt P41245, residues 108-730: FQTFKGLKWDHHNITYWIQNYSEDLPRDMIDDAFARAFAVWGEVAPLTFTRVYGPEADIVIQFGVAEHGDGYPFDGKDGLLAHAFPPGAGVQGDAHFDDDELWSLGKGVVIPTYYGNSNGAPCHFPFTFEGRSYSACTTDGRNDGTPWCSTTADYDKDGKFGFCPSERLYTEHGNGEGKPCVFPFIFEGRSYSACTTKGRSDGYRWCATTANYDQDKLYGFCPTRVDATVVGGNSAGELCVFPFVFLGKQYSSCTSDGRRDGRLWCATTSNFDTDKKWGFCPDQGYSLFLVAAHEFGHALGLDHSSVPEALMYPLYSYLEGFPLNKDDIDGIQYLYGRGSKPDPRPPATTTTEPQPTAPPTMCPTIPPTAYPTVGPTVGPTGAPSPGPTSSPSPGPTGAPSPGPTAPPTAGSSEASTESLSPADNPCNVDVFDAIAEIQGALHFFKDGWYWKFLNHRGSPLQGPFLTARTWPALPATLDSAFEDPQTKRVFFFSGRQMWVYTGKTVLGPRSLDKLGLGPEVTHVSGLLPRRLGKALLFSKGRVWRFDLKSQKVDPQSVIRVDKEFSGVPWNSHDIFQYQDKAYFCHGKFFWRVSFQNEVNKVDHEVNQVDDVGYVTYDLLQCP

How the values were obtained:
Assay in all cases: phage display selection, affinity maturation libraries
[1] = biological target: hMMP2 (human) (UniProt P08253)
[2] = biological target: hMMP9 (human) (UniProt P14780)
[3] = biological target: mMMP2 (mouse) (UniProt P33434)
[4] = biological target: mMMP9 (mouse) (UniProt P41245)

Row | Binder | binding [1] | binding [2] | binding [3] | binding [4]
1 | Fab M263-F01 (Fab, V domains shown) VH: EVQLLESGGGLVQPGGSLRLSCAASGFTFSQYPMWWVRQAPGKGLEWVSYIVPSGGRTYYADSVKGRFTISRDNSKNTLYLQMNSLRAEDTAVYYCAKDRAYGDYVGWNGFDYWGQGTLVTVSS VL: DIQMTQSPSSVSASVGDRVTITCRASQNIGRWLAWYQQKPGQAPNLLIYGASSLQTGVPSRFSGSGSGTDFSLTISSLQPEDFAVYYCQQRRKWPVTFGGGTKVEIK | binds | binds | binds | binds
2 | Fab M256-A04 (Fab, V domains shown) VH: EVQLLESGGGLVQPGGSLRLSCAASGFTFSHYPMWWVRQAPGKGLEWVSSISPSGGATYYADSVKGRFTISRDNSKNTLYLQMNSLRAEDTAVYYCAKDRAYGDYVGWNGFDYWGQGTLVTVSS VL: DIQMTQSPATLSLSPGERATLSCRASQSISSFLAWYQQKPGQAPRLLIYDASYRATGIPARFSGSGSGTDFTLTISSLEPEDYAVYYCQQRGNWPITFGQGTRLEIK | binds | binds | binds | binds
3 | Fab M256-G09 (Fab, V domains shown) VH: EVQLLESGGGLVQPGGSLRLSCAASGFTFSKYPMWWVRQAPGKGLEWVSSIYPSGGATFYADSVKGRFTISRDNSKNTLYLQMNSLRAEDTAVYYCAKDRAYGDYVGWNGFDYWGQGTLVTVSS VL: DIQMTQSPATLSLSPGERATLSCRASQSISSFLAWYQQKPGQAPRLLIYDASYRATGIPARFSGSGSGTDFTLTISSLEPEDYAVYYCQQRGNWPITFGQGTRLEIK | binds | binds |  | 
4 | Fab M256-D11 (Fab, V domains shown) VH: EVQLLESGGGLVQPGGSLRLSCAASGFTFSHYDMWWVRQAPGKGLEWVSVIYSSGGPTFYADSVKGRFTISRDNSKNTLYLQMNSLRAEDTAVYYCAKDRAYGDYVGWNGFDYWGQGTLVTVSS VL: DIQMTQSPATLSLSPGERATLSCRASQSISSFLAWYQQKPGQAPRLLIYDASYRATGIPARFSGSGSGTDFTLTISSLEPEDYAVYYCQQRGNWPITFGQGTRLEIK | binds | binds |  | binds
5 | Fab M256-E03 (Fab, V domains shown) VH: EVQLLESGGGLVQPGGSLRLSCAASGFTFSTYPMIWVRQAPGKGLEWVSYISPSGGYTGYADSVKGRFTISRDNSKNTLYLQMNSLRAEDTAVYYCAKDRAYGDYVGWNGFDYWGQGTLVTVSS VL: DIQMTQSPATLSLSPGERATLSCRASQSISSFLAWYQQKPGQAPRLLIYDASYRATGIPARFSGSGSGTDFTLTISSLEPEDYAVYYCQQRGNWPITFGQGTRLEIK | binds | binds |  | binds
6 | Fab M256-C09 (Fab, V domains shown) VH: EVQLLESGGGLVQPGGSLRLSCAASGFTFSKYPMWWVRQAPGKGLEWVSYISSSGGGTFYADSVKGRFTISRDNSKNTLYLQMNSLRAEDTAVYYCAKDRAYGDYVGWNGFDYWGQGTLVTVSS VL: DIQMTQSPATLSLSPGERATLSCRASQSISSFLAWYQQKPGQAPRLLIYDASYRATGIPARFSGSGSGTDFTLTISSLEPEDYAVYYCQQRGNWPITFGQGTRLEIK | binds | binds | binds | 
7 | Fab M256-C07 (Fab, V domains shown) VH: EVQLLESGGGLVQPGGSLRLSCAASGFTFSLYDMWWVRQAPGKGLEWVSYISSSGGATFYADSVKGRFTISRDNSKNTLYLQMNSLRAEDTAVYYCAKDRAYGDYVGWNGFDYWGQGTLVTVSS VL: DIQMTQSPATLSLSPGERATLSCRASQSISSFLAWYQQKPGQAPRLLIYDASYRATGIPARFSGSGSGTDFTLTISSLEPEDYAVYYCQQRGNWPITFGQGTRLEIK | binds | binds |  | 
8 | Fab M256-E10 (Fab, V domains shown) VH: EVQLLESGGGLVQPGGSLRLSCAASGFTFSDYPMWWVRQAPGKGLEWVSVIYPSGGATFYADSVKGRFTISRDNSKNTLYLQMNSLRAEDTAVYYCAKDRAYGDYVGWNGFDYWGQGTLVTVSS VL: DIQMTQSPATLSLSPGERATLSCRASQSISSFLAWYQQKPGQAPRLLIYDASYRATGIPARFSGSGSGTDFTLTISSLEPEDYAVYYCQQRGNWPITFGQGTRLEIK | binds | binds |  | binds
9 | Fab M256-A07 (Fab, V domains shown) VH: EVQLLESGGGLVQPGGSLRLSCAASGFTFSHYDMLWVRQAPGKGLEWVSYISSSGGYTGYADSVKGRFTISRDNSKNTLYLQMNSLRAEDTAVYYCAKDRAYGDYVGWNGFDYWGQGTLVTVSS VL: DIQMTQSPATLSLSPGERATLSCRASQSISSFLAWYQQKPGQAPRLLIYDASYRATGIPARFSGSGSGTDFTLTISSLEPEDYAVYYCQQRGNWPITFGQGTRLEIK | binds | binds |  | 
10 | Fab M256-D03 (Fab, V domains shown) VH: EVQLLESGGGLVQPGGSLRLSCAASGFTFSVYPMIWVRQAPGKGLEWVSYISPSGGFTGYADSVKGRFTISRDNSKNTLYLQMNSLRAEDTAVYYCAKDRAYGDYVGWNGFDYWGQGTLVTVSS VL: DIQMTQSPATLSLSPGERATLSCRASQSISSFLAWYQQKPGQAPRLLIYDASYRATGIPARFSGSGSGTDFTLTISSLEPEDYAVYYCQQRGNWPITFGQGTRLEIK | binds | binds |  | binds
11 | Fab M256-B03 (Fab, V domains shown) VH: EVQLLESGGGLVQPGGSLRLSCAASGFTFSRYPMWWVRQAPGKGLEWVSYISPSGGFTSYADSVKGRFTISRDNSKNTLYLQMNSLRAEDTAVYYCAKDRAYGDYVGWNGFDYWGQGTLVTVSS VL: DIQMTQSPATLSLSPGERATLSCRASQSISSFLAWYQQKPGQAPRLLIYDASYRATGIPARFSGSGSGTDFTLTISSLEPEDYAVYYCQQRGNWPITFGQGTRLEIK | binds | binds |  | 

Second part, the binder after the results:

Row | binding [1] | binding [2] | binding [3] | binding [4] | Binder
12 | binds | binds |  |  | Fab M265-C07 (Fab, V domains shown) VH: EVQLLESGGGLVQPGGSLRLSCAASGFTFSQYPMWWVRQAPGKGLEWVSYIVPSGGRTYYADSVKGRFTISRDNSKNTLYLQMNSLRAEDTAVYYCAKDRAYGDYVGWNGFDYWGQGTLVTVSS VL: DIQMTQSPATLSLSPGERASLSCRASQNVARFLAWYQQKPGQAPRLLIYSASNRATGVPDRFSGSGSGTDFTLTISSLEPEDFAVYFCQQRGNWPITFGQGTRLEIK
13 | binds | binds | binds | binds | Fab M266-E02 (Fab, V domains shown) VH: EVQLLESGGGLVQPGGSLRLSCAASGFTFSQYPMWWVRQAPGKGLEWVSYIVPSGGRTYYADSVKGRFTISRDNSKNTLYLQMNSLRAEDTAVYYCAKDRAYGDYVGWNGFDYWGQGTLVTVSS VL: DIQMTQSPATLSLSPGETAILSCRASQSVGRFLAWYQQKPGQAPRLLIYGASSRATGIPDRFSGSGSGTDFSLTISRLEPEDFAVYYCQQRGNWPITFGQGTRLEIK
14 | binds | binds |  |  | Fab M265-A04 (Fab, V domains shown) VH: EVQLLESGGGLVQPGGSLRLSCAASGFTFSQYPMWWVRQAPGKGLEWVSYIVPSGGRTYYADSVKGRFTISRDNSKNTLYLQMNSLRAEDTAVYYCAKDRAYGDYVGWNGFDYWGQGTLVTVSS VL: DIQMTQSPVTLSVSPGERATLSCRASQNIGSDLAWYQQQPGQAPRLLIYRASFRATGIPARFSGSGSGTDFTLTISSLQSEDFAVYYCQQRGNWPPTFGGGTKVEIR
15 | binds | binds |  | binds | Fab M266-D03 (Fab, V domains shown) VH: EVQLLESGGGLVQPGGSLRLSCAASGFTFSQYPMWWVRQAPGKGLEWVSYIVPSGGRTYYADSVKGRFTISRDNSKNTLYLQMNSLRAEDTAVYYCAKDRAYGDYVGWNGFDYWGQGTLVTVSS VL: DIQMTQSPATLSVSPGERATLSCRASQNIGSDLAWYQHKPGQGPRLLIYGASSRATGIPDRFSGSGSGTDFTLTISSLEPEDFAVYFCQQRGNWPITFGQGTRLEIK
16 | binds | binds | binds |  | Fab M265-A07 (Fab, V domains shown) VH: EVQLLESGGGLVQPGGSLRLSCAASGFTFSQYPMWWVRQAPGKGLEWVSYIVPSGGRTYYADSVKGRFTISRDNSKNTLYLQMNSLRAEDTAVYYCAKDRAYGDYVGWNGFDYWGQGTLVTVSS VL: DIQMTQSPATLSLSPGERATLSCRASQNVHTYLAWYQQKPGQAPRLLISEASNRATGVPARFTGSGSGIDFSLSISSLEPEDFAIYYCQQRGGWPITFGGGTKVEIK
17 | binds | binds | binds | binds | Fab M263-F05 (Fab, V domains shown) VH: EVQLLESGGGLVQPGGSLRLSCAASGFTFSQYPMWWVRQAPGKGLEWVSYIVPSGGRTYYADSVKGRFTISRDNSKNTLYLQMNSLRAEDTAVYYCAKDRAYGDYVGWNGFDYWGQGTLVTVSS VL: DIQMTQSPGTLSLSPGERATLSCRASQSVGNFLAWYQQKPGQAPRLLIYGASNRATGIPDRFSGSGSGTDFTLTISRLEPEDFAVYFCQQRGNWPITFGQGTRLEIK
18 | binds | binds | binds | binds | Fab M264-A09 (Fab, V domains shown) VH: EVQLLESGGGLVQPGGSLRLSCAASGFTFSQYPMWWVRQAPGKGLEWVSYIVPSGGRTYYADSVKGRFTISRDNSKNTLYLQMNSLRAEDTAVYYCAKDRAYGDYVGWNGFDYWGQGTLVTVSS VL: DIQMTQSPSSVSASTGDRVIISCRASQVIFSGLAWYQQKPGKAPKLLISAASNLQSGVPARFSGSGSGTYFTLTISSLQPEDFATYYCQQAQTFPFTFGPGTKVDVQ
